# Values of other authors in US20260297035A1, “PROTEIN KINASE INHIBITORS AND USES THEREOF” (DELiver Therapeutics, Inc., priority 2023, published 2026).
# What was measured:
# ABL1 E255K = details: control inhibitor; Tyr 02; ATP 5 μM; cited from earlier work
# ABL1 G250E = details: control inhibitor; Tyr 02; ATP 5 μM; cited from earlier work
# ABL1 Y253F = details: control inhibitor; Tyr 02; ATP 10 μM; cited from earlier work
# RET-S891A = details: control inhibitor; Tyr 06; ATP 10 uM; cited from earlier work
# NTRK3 (TRKC) = details: control inhibitor; Tyr 01; ATP 50 uM; cited from earlier work
# DDR2-N456S = details: control inhibitor; Tracer 236 at 1 nM; cited from earlier work
# ABL1 F317I = details: control inhibitor; Tyr 02; ATP 10 μM; cited from earlier work
structure (smiles),measurement,setting,value
CN[C@@H]1C[C@H]2O[C@@](C)([C@@H]1OC)n1c3ccccc3c3c4c(c5c6ccccc6n2c5c31)C(=O)NC4 [Staurosporine],IC50,ABL1 E255K,71.1 nM
same,IC50,ABL1 G250E,29.9 nM
same,IC50,ABL1 Y253F,44.1 nM
same,IC50,RET-S891A,0.721 nM
same,IC50,NTRK3 (TRKC),1.94 nM
same,IC50,DDR2-N456S,0.134 nM
same,IC50,ABL1 F317I,205 nM
